The source of these data is the supplement of paper PMC4635364.

Counter-ions that a name gives are not always drawn. This is one part of the list. This data set is noisy: repeats of one test often differ as much as different tests do.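 Cells: ReNCell VM human fetal ventral-midbrain neural progenitors, differentiated mitogen-free. Blinded raters compared doublecortin-stained (early neurons) or tyrosine hydroxylase-stained (dopaminergic neurons) images with untreated wells, where 0 means no change. After repeats and both raters were averaged, compounds scoring 2 or above became hits for retesting.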

Assay [1] concerns ReNCell VM. The assay can be described thus: neuronal differentiation score (DCX+ cell fraction vs untreated, manual image score) (score (-3 to 3)); higher = more neuronal differentiation. Particulars: 2 uM, 2 weeks.
For assay [2], the system named is ReNCell VM. The assay can be described thus: dopaminergic neuron differentiation score (TH+ cell fraction vs untreated, manual image score) (score (0 to 3)); higher = more TH+ dopaminergic neuron differentiation. Particulars: 2 uM, 4 weeks, BDNF 10 ng/ml + GDNF 10 ng/ml.

As for `CC(C)(C)NCC(O)c1ccccc1Cl` (stereo not drawn), in the assay on ReNCell VM [1] (library: Spectrum), the neuronal differentiation score is inactive: 0. Also, the “dopaminergic neuron differentiation score” value in the assay on ReNCell VM [2] (library: Spectrum) is inactive: 0.

`CC(=O)NC1CCSC1=O` (racemic) [N-Acetyl-DL-homocysteine Thiolactone]: the neuronal differentiation score in the assay on ReNCell VM [1] (library: Prestwick) is inactive: 0. Further, the “dopaminergic neuron differentiation score” value with ReNCell VM [2] (library: Prestwick) is inactive: 0.

With `CC(=O)Nc1cc([As](=O)(O)O)ccc1O`, the neuronal differentiation score in the assay on ReNCell VM [1] (library: Spectrum) was inactive: 0. Also, the “dopaminergic neuron differentiation score” value in the assay on ReNCell VM [2] (library: Spectrum) was inactive: 0.

For `C[C@@H]1C[C@@H]([C@H](O)CC2CC(=O)NC(=O)C2)C(=O)[C@@H](C)C1`, the neuronal differentiation score in the assay on ReNCell VM [1] (library: Spectrum) is inactive: 0. Further, the “dopaminergic neuron differentiation score” value in the assay with ReNCell VM [2] (library: Spectrum) is inactive: 0.

In the case of `CCC[C@@H]1CC2=CC(=O)CC[C@]2(C)[C@H]2CC[C@@]3(C)[C@@H](CC[C@@]3(O)CCC(=O)O)[C@H]12`, the neuronal differentiation score in the assay with ReNCell VM [1] (library: Tocriscreen) is inactive: 0. In addition, the “dopaminergic neuron differentiation score” value in the assay with ReNCell VM [2] (library: Tocriscreen) is inactive: 0.

Consider `CC(C)(C)OC(=O)c1ncn2c1[C@@H]1CCCN1C(=O)c1c(Br)cccc1-2` [Bretazenil], for which the neuronal differentiation score in the assay on ReNCell VM [1] (library: Tocriscreen) was inactive: 0. In addition, the “dopaminergic neuron differentiation score” value in the assay on ReNCell VM [2] (library: Tocriscreen) was inactive: 0.

For the molecule `CCCN(CCC)[C@@H]1CCc2cccc(O)c2C1` [R-(+)-8-Hydroxy-DPAT hydrobromide], the neuronal differentiation score with ReNCell VM [1] (library: LOPAC) was inactive: 0. The “dopaminergic neuron differentiation score” value in the assay with ReNCell VM [2] (library: LOPAC) was inactive: 0.

On to `NCC(O)c1ccc(O)cc1` (stereo not drawn) [Octopamine hydrochloride], for which the neuronal differentiation score with ReNCell VM [1] (library: Tocriscreen) was inactive: 0. The “dopaminergic neuron differentiation score” value in the assay with ReNCell VM [2] (library: Tocriscreen) is inactive: 0.

In the case of `NCc1cc(O)no1` [Muscimol], the neuronal differentiation score in the assay on ReNCell VM [1] (library: Tocriscreen) is inactive: 0. Further, the “dopaminergic neuron differentiation score” value in the assay on ReNCell VM [2] (library: Tocriscreen) was inactive: 0.

As to `C[C@]12CC[C@@H](O)C[C@@H]1CC[C@@H]1[C@@H]2CC[C@]2(C)C(=O)CC[C@@H]12`, the neuronal differentiation score in the assay with ReNCell VM [1] (library: Spectrum) is inactive: 0. The “dopaminergic neuron differentiation score” value in the assay on ReNCell VM [2] (library: Spectrum) is inactive: 0.

Take `OC(Cc1ccncc1)C(Cl)(Cl)Cl` (stereo not drawn): the neuronal differentiation score in the assay with ReNCell VM [1] (library: Tocriscreen) was inactive: 0. Moreover, the “dopaminergic neuron differentiation score” value in the assay on ReNCell VM [2] (library: Tocriscreen) was inactive: 0.

Consider `O=C1Nc2cc(Cl)c(Cl)cc2N2CCNCC12` (stereo not drawn), for which, in the assay on ReNCell VM [1] (library: Tocriscreen), the neuronal differentiation score was inactive: 0. For the same molecule, in the assay with ReNCell VM [2] (library: Tocriscreen), the “dopaminergic neuron differentiation score” value was inactive: 0.

With `CCCCCCCCCCCCCC(=O)O[C@@H]1[C@@H](C)[C@@]2(O)[C@@H](C=C(CO)C[C@]3(O)C(=O)C(C)=C[C@@H]23)[C@@H]2C(C)(C)[C@]12OC(C)=O` [Phorbol 12-myristate 13-acetate], in the assay with ReNCell VM [1] (library: LOPAC), the neuronal differentiation score is inactive: 0. Besides, in the assay with ReNCell VM [2] (library: LOPAC), the “dopaminergic neuron differentiation score” value is inactive: 0.

With `COc1cc2c(cc1O)CCN[C@@H]2C`, the neuronal differentiation score with ReNCell VM [1] (library: Spectrum) was inactive: 0. For the same molecule, in the assay on ReNCell VM [2] (library: Spectrum), the “dopaminergic neuron differentiation score” value was inactive: 0.

`CC(N)C(O)c1ccccc1` (stereo not drawn) [Phenylpropanolamine hydrochloride]: in the assay on ReNCell VM [1] (library: Prestwick), the neuronal differentiation score was inactive: 0. In the assay on ReNCell VM [2] (library: Prestwick), the “dopaminergic neuron differentiation score” value was inactive: 0.

Take `CCCN[C@@H]1CCc2c(OC)cccc2[C@@H]1C` [(+)-AJ 76 hydrochloride]: in the assay on ReNCell VM [1] (library: Tocriscreen), the neuronal differentiation score is inactive: 0. Moreover, the “dopaminergic neuron differentiation score” value in the assay with ReNCell VM [2] (library: Tocriscreen) was inactive: 0.

With `O=C(O)CF`, the neuronal differentiation score in the assay with ReNCell VM [1] (library: Spectrum) was inactive: 0. Besides, in the assay with ReNCell VM [2] (library: Spectrum), the “dopaminergic neuron differentiation score” value is inactive: 0.

For the molecule `O=c1cccc2n1C[C@@H]1CNC[C@H]2C1` [Cytisine nitrate hydrate], the neuronal differentiation score in the assay with ReNCell VM [1] (library: Phytochemical) was inactive: 0. Besides, in the assay with ReNCell VM [2] (library: Phytochemical), the “dopaminergic neuron differentiation score” value was inactive: 0.

On to `C1CCc2nnnn2CC1`, for which the neuronal differentiation score with ReNCell VM [1] (library: Spectrum) was inactive: 0. In the assay on ReNCell VM [2] (library: Spectrum), the “dopaminergic neuron differentiation score” value is inactive: 0.

Consider `O=C(O)C1=CCCN(CCOC(c2ccc(C(F)(F)F)cc2)c2ccc(C(F)(F)F)cc2)C1` [CI 966 hydrochloride], for which the neuronal differentiation score in the assay on ReNCell VM [1] (library: Tocriscreen) was inactive: 0. The “dopaminergic neuron differentiation score” value in the assay on ReNCell VM [2] (library: Tocriscreen) was inactive: 0.

For the molecule `CCC(C)C(=O)OC1CC2(C)C(c3ccoc3)OC(=O)CC23OC2(C)OC34C(OC(=O)C(C)C)C3(O)C(OC(=O)C5(C)OC5C)C5(C)CC3(O)C(C)(C5CC(=O)OC)C14O2` (stereo not drawn), the neuronal differentiation score in the assay on ReNCell VM [1] (library: Spectrum) was inactive: 0. Besides, in the assay with ReNCell VM [2] (library: Spectrum), the “dopaminergic neuron differentiation score” value was inactive: 0.

On to `CC([C@H](O)c1ccccc1)N(C)C` (stereo partly drawn), for which the neuronal differentiation score in the assay with ReNCell VM [1] (library: Spectrum) is inactive: 0. Also, the “dopaminergic neuron differentiation score” value in the assay on ReNCell VM [2] (library: Spectrum) was inactive: 0.

For the molecule `CC[C@@]1(O)C[C@H](O)c2c(cc3c(c2O)C(=O)c2c(O)ccc(O)c2C3=O)[C@H]1C(=O)OC`, the neuronal differentiation score in the assay on ReNCell VM [1] (library: Spectrum) was inactive: 0. Besides, in the assay with ReNCell VM [2] (library: Spectrum), the “dopaminergic neuron differentiation score” value is inactive: 0.

Take `CCc1c(C(=O)OC)ncc2[nH]c3cc(OC)c(OC)cc3c12` [Methyl 6,7-dimethoxy-4-ethyl-beta-carboline-3-carboxylate]: in the assay with ReNCell VM [1] (library: LOPAC), the neuronal differentiation score is inactive: 1. Further, the “dopaminergic neuron differentiation score” value in the assay on ReNCell VM [2] (library: LOPAC) was inactive: 0.

With `NCCCNCCSP(=O)(O)O`, the neuronal differentiation score with ReNCell VM [1] (library: Spectrum) is inactive: 0. In addition, the “dopaminergic neuron differentiation score” value in the assay with ReNCell VM [2] (library: Spectrum) was inactive: 0.

Consider `CN1CCCCC1c1ccc(-c2cccnc2)nc1` (stereo not drawn), for which the neuronal differentiation score in the assay on ReNCell VM [1] (library: Spectrum) is inactive: 0. In the assay on ReNCell VM [2] (library: Spectrum), the “dopaminergic neuron differentiation score” value was inactive: 0.

With `CN1C2CCC1CC(OC(=O)[C@H]1CC[C@](C(=O)OC3CC4CCC(C3)N4C)(c3ccccc3)c3ccccc31)C2` (stereo partly drawn) [belladonnine], the neuronal differentiation score with ReNCell VM [1] (library: Natural) was inactive: 0. In the assay with ReNCell VM [2] (library: Natural), the “dopaminergic neuron differentiation score” value was inactive: 0.

Take `O=C(O)CCC(CP(=O)(O)O)C(=O)O` (stereo not drawn) [PMPA (NAALADase inhibitor)]: the neuronal differentiation score in the assay with ReNCell VM [1] (library: Tocriscreen) was inactive: -3. The “dopaminergic neuron differentiation score” value in the assay with ReNCell VM [2] (library: Tocriscreen) was inactive: 0.

For the molecule `BrC1C(Br)C(Br)C(Br)C(Br)C1Br` (stereo not drawn) [1,2,3,4,5,6-Hexabromocyclohexane], the neuronal differentiation score in the assay with ReNCell VM [1] (library: Tocriscreen) was inactive: 0. The “dopaminergic neuron differentiation score” value in the assay with ReNCell VM [2] (library: Tocriscreen) was inactive: 0.

As to `COc1cc2c(cc1OC)[C@@]13CCN4CC5=CCO[C@H]6CC(=O)N2[C@H]1[C@H]6[C@H]5C[C@H]43`, in the assay on ReNCell VM [1] (library: Spectrum), the neuronal differentiation score is inactive: 0. Besides, in the assay with ReNCell VM [2] (library: Spectrum), the “dopaminergic neuron differentiation score” value was inactive: 0.

As for `COc1ccc2c(c1)/C(=C/c1cnc[nH]1)C(=O)N2`, the neuronal differentiation score in the assay on ReNCell VM [1] (library: LOPAC) is inactive: 0. Further, in the assay on ReNCell VM [2] (library: LOPAC), the “dopaminergic neuron differentiation score” value was inactive: 0.

For the molecule `O=c1[nH]c(=O)n(Cl)c(=O)n1Cl`, in the assay on ReNCell VM [1] (library: Spectrum), the neuronal differentiation score is inactive: 0. The “dopaminergic neuron differentiation score” value in the assay on ReNCell VM [2] (library: Spectrum) was inactive: 0.

For the molecule `CCC1(c2ccc(N)cc2)CCC(=O)NC1=O` (stereo not drawn), the neuronal differentiation score with ReNCell VM [1] (library: Spectrum) was inactive: 0. In addition, in the assay with ReNCell VM [2] (library: Spectrum), the “dopaminergic neuron differentiation score” value is inactive: 0.

In the case of `CC(N)Cc1c[nH]c2ccc(OCc3cccs3)cc12` (stereo not drawn) [BW 723C86 hydrochloride], the neuronal differentiation score with ReNCell VM [1] (library: Tocriscreen) is inactive: 0. Also, the “dopaminergic neuron differentiation score” value in the assay with ReNCell VM [2] (library: Tocriscreen) is inactive: 0.
